Experimental data: US20130171163A1, “Inhibition of LAR Phosphatase to Enhance Therapeutic Angiogenesis” (priority 2010, published 2013)
No constants are given. Whether binding was seen depends on the method and setting. In cells and extracts the contact can be indirect. Some entries that bind do so weakly or less than the wild type.

Sequences of proteins named here, by UniProt entry; tags and fusion partners are left off. Residues count along the entry.
UniProt P08069, residues 741-1367: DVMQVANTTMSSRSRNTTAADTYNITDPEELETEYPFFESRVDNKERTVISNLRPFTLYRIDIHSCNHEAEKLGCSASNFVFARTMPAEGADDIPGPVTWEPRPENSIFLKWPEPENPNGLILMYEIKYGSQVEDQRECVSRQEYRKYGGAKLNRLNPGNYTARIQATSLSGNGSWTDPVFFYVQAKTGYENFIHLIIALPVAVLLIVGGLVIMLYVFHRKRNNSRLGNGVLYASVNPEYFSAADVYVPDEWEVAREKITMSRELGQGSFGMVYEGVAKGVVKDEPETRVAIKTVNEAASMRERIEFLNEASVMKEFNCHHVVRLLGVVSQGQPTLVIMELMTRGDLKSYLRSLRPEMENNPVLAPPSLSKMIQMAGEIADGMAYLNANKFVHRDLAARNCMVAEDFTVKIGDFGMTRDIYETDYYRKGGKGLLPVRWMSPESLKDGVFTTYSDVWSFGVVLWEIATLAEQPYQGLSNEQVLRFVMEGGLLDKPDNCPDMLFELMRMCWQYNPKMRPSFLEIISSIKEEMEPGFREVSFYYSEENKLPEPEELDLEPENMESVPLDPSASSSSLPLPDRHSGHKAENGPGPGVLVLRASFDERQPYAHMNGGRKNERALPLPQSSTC
UniProt P10586, residues 30-1907: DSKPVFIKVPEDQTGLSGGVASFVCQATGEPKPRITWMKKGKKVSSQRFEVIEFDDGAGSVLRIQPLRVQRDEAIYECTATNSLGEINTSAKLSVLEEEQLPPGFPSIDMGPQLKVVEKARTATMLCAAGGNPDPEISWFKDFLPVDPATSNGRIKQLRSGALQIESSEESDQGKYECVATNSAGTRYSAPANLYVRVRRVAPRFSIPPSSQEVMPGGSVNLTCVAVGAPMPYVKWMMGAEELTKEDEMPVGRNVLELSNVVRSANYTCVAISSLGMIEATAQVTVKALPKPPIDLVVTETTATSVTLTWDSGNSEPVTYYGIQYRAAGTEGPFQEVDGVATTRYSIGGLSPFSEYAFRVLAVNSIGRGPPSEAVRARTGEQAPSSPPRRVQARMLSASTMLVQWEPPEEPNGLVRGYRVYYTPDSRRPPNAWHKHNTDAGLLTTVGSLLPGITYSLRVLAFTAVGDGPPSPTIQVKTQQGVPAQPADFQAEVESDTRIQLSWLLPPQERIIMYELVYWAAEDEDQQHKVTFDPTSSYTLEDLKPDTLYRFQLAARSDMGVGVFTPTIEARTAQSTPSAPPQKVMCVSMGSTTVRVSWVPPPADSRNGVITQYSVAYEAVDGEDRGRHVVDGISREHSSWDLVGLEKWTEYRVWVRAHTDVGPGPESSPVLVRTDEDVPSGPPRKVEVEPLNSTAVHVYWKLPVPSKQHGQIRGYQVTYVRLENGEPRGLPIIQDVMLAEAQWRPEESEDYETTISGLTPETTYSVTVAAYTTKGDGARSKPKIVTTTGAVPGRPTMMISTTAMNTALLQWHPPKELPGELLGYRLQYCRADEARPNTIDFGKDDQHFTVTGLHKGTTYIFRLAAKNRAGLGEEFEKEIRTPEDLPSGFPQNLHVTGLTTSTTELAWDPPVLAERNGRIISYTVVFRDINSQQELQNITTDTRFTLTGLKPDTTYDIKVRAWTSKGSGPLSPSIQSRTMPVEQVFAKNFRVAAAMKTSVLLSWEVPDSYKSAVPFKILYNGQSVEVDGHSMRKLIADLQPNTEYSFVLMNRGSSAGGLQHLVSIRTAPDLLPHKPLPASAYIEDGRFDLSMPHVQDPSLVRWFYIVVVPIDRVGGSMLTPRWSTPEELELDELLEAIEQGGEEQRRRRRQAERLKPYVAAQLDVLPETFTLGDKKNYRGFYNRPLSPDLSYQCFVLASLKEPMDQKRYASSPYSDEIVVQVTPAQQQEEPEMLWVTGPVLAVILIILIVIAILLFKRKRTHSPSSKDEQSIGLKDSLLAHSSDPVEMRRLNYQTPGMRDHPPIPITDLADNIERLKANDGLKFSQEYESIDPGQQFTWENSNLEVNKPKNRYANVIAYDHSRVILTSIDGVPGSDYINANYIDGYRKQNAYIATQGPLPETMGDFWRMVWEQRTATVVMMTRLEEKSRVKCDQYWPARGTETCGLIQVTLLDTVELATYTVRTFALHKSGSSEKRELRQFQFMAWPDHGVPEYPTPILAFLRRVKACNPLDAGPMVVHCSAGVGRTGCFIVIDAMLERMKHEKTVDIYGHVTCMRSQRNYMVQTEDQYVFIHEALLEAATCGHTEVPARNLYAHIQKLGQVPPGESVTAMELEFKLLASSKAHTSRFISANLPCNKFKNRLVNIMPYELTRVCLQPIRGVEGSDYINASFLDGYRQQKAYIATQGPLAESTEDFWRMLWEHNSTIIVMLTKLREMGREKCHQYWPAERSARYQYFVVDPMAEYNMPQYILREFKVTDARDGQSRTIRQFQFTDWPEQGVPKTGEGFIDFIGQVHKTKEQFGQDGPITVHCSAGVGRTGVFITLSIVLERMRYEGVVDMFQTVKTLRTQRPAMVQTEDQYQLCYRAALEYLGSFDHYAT

What was measured:
[1] = molecular target: insulin-like growth-factor-1 receptor beta subunit (IGF-1Rβ) (human) (UniProt P08069); test: the filing's summary of its co-immunoprecipitation and pulldown studies in HUVECs
[2] = molecular target: insulin-like growth-factor-1 receptor beta subunit (IGF-1Rβ) (human) (UniProt P08069); test: co-immunoprecipitation (anti-cLAR IP, anti-IGF-1Rβ blot) and GST-cLAR pulldown from HUVEC lysates
[3] = molecular target: insulin-like growth-factor-1 receptor beta subunit (IGF-1Rβ) (human) (UniProt P08069); test: co-immunoprecipitation from HUVEC lysates with or without IGF-1 (100 ng/ml, 10 min): anti-cLAR IP, anti-IGF-1Rβ Western blot

Measured: binding

leukocyte antigen-related protein tyrosine phosphatase (LAR) (from UniProt P10586 30-1907) (enzyme)
binds: all assays above
